Patent US4321381A, “Ergot derivatives” (Farmitalia Carlo Erba S.p.A., priority 1978, dated 1982)
At least one structure is not confirmed: it was looked up by name or label, or the drawing left a doubt.

System: spontaneously hypertensive male rats, strain MHS
Experiment: Anti-hypertensive activity in the spontaneously hypertensive rat (MHS): blood pressure and heart rate at the tail
Assay type: in vivo
Procedure: 1. Spontaneously Hypertensive Rat (MHS)
Four spontaneously hypertensive male rats, strain MHS, weight 250 to 300 g for each group were used. The animals were treated for four consecutive days. The drugs were administered by gastric gavage while suspended in 5% arabic gum (0.2 ml/100 g body weight), and blood pressure (BP) and heart rate (HR) were measured at the tail by BP Recorder W+W. Blood pressure and heart rate were measured on the first and fourth day of treatment 1 hour before and 1 and 5 hours after drug administration.

With C[C@](N)(Cc1ccc(O)c(O)c1)C(=O)O [α-methyl-DOPA, reference compound] the “Change in BP, 1 hr after dose, first day” value (30 mg/kg os, 1 hr after dose) was “- 3 mm Hg” and the “Change in HR, 5 hr after dose, first day” value (100 mg/kg os, 5 hr after dose) was “+ 65 b/min”.
